Among the data in publication PMC12061476 are binding values, retold here.

Protein sequences, listed by entry. Tags and fused reporters are not part of them.
UniProt P28347: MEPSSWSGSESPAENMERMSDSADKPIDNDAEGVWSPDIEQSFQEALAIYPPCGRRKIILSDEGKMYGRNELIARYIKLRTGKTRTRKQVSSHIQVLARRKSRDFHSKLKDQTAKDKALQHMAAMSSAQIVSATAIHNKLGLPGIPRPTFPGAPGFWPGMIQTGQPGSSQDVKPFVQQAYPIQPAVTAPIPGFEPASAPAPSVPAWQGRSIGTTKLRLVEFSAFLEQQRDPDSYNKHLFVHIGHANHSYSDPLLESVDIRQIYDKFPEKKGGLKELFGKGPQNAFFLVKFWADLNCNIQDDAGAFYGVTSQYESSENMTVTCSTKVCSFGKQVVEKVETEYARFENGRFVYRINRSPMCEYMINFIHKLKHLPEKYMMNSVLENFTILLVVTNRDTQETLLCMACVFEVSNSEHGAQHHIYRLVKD
UniProt Q9GZV5: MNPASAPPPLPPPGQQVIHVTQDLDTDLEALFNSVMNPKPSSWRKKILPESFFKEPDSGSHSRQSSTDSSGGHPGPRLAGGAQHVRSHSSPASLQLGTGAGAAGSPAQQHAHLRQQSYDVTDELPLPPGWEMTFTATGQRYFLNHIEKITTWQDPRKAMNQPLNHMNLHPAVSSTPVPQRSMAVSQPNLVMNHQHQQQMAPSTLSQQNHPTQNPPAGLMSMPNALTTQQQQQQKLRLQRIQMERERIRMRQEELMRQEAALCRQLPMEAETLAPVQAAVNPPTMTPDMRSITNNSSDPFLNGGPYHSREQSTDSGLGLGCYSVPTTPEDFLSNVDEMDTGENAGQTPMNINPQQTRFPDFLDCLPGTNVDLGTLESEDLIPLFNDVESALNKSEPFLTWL

No constants are given. Whether binding was seen depends on the method and setting. Binding seen in cells or lysates may run through a third protein. Some results given as binding are weak or reduced against the parent protein; the word gives no strength.

The target in this test is TEAD1-Flag (UniProt P28347). As to the kind of experiment: co-IP; TEAD1-Flag or TEAD1-NCOA2-Flag expressed in HEK293T cells, immunoprecipitated with an anti-Flag antibody; endogenous YAP/TAZ detected by anti-YAP/TAZ antibodies.

Consider “endogenous TAZ (from UniProt Q9GZV5 1-400)”, for which the binding entry is recorded as “binds”.
